Source: ChEMBL document CHEMBL3988442, “University of Dundee, Small-Polar-MMV Screening Library” (2021).

Chains of the proteins cited; added tags and fusions are not shown. Residues count along the entry.
UniProt I6X8D2, whole entry: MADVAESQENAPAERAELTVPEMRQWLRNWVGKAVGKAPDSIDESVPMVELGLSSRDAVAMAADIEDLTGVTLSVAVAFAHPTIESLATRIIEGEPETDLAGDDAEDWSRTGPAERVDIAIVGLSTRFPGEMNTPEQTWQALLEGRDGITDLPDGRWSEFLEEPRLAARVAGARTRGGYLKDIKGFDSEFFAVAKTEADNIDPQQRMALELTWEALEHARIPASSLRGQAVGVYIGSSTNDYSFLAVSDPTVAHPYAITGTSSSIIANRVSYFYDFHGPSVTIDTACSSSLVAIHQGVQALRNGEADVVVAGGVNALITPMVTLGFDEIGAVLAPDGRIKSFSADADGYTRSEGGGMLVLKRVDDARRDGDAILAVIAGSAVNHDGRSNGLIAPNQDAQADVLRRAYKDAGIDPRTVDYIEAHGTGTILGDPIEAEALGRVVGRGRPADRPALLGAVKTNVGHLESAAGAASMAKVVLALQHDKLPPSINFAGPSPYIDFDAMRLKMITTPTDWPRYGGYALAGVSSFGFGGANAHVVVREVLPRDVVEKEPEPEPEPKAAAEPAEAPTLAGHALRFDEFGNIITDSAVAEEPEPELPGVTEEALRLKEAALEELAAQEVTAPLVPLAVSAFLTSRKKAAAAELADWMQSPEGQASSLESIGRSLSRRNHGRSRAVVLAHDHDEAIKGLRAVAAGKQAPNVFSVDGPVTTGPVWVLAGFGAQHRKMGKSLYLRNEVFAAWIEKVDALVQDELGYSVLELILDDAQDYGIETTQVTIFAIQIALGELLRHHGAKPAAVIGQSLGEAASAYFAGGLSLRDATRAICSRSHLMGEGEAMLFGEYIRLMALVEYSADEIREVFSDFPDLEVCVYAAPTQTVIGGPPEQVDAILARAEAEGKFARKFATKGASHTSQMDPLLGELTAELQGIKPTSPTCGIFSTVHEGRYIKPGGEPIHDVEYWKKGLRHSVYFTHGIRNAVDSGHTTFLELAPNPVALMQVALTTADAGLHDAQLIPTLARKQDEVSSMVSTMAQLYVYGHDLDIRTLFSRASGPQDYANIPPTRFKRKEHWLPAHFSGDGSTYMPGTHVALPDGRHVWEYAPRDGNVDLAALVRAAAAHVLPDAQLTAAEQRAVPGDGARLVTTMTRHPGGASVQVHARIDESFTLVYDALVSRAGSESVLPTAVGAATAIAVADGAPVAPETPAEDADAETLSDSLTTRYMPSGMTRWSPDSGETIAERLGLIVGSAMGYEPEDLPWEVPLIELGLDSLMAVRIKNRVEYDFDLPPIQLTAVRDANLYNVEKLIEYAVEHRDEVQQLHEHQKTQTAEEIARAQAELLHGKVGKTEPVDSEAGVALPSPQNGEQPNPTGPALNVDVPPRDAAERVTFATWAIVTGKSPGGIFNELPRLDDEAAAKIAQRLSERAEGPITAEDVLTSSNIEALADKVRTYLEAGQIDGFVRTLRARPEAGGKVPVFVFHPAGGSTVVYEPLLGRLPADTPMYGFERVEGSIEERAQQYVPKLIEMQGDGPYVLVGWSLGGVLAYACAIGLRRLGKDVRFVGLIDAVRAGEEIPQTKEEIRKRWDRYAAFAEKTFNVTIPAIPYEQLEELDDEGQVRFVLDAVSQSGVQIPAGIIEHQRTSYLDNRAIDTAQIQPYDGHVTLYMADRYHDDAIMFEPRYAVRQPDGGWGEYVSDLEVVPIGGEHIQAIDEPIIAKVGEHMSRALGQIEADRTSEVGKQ
UniProt P9WNZ1, whole entry: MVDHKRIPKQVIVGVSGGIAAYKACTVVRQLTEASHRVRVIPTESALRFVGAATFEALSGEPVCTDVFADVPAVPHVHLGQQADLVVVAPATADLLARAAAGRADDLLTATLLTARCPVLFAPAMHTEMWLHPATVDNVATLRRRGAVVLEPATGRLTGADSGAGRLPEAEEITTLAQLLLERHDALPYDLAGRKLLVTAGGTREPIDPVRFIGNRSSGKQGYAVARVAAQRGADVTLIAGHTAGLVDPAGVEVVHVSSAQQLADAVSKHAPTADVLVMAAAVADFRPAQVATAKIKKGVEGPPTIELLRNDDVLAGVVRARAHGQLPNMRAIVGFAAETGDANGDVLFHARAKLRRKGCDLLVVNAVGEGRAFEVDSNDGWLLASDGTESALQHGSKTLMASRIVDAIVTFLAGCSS
UniProt Q8IDJ8, 1-583: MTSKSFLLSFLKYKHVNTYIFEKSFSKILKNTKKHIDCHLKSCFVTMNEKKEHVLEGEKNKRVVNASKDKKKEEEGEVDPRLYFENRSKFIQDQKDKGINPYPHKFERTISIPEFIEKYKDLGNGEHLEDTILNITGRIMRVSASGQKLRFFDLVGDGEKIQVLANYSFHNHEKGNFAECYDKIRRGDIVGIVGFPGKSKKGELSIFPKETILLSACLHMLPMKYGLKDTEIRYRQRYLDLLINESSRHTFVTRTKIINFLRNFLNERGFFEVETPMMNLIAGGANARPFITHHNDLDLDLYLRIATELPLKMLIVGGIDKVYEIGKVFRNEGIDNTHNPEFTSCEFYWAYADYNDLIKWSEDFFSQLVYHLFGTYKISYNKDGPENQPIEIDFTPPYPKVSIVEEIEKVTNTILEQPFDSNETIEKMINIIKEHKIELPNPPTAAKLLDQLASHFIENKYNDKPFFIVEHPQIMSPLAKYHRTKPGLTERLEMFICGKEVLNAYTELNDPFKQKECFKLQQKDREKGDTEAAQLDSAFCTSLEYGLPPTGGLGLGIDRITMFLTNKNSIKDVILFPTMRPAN
UniProt Q4DA54, 1-478: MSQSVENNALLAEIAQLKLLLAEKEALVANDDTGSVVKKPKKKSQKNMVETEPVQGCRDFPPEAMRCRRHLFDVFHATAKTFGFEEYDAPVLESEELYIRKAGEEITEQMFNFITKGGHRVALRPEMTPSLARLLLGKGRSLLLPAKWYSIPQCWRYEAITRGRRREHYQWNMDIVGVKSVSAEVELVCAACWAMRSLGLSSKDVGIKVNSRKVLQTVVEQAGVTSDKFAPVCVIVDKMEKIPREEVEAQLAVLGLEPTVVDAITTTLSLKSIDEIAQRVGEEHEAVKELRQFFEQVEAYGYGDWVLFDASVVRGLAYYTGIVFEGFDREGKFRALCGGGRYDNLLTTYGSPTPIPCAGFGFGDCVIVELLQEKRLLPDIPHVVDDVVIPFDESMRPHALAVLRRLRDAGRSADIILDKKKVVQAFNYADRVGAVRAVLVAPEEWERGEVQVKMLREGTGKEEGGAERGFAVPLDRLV

Pks13 thioesterase: 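Enzyme assay of the thioesterase domain of polyketide synthase 13; the read-out is not stated. Target: Polyketide synthase Pks13, Mycobacterium tuberculosis (UniProt I6X8D2). Concentration: 30 µM. The record gives no direction; the compounds picked for IC50 retests had high values, so higher reads as stronger inhibition. Of about 67,000 compounds tested this way, about 300 (0.46%) reached 50% or more in at least one test.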
CoaBC: 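Coenzyme A biosynthesis protein CoaBC, Mycobacterium tuberculosis (UniProt P9WNZ1). Enzyme assay of CoaBC with a phosphate dye (Biomol Green) read at 650 nm. Concentration: 30 µM. Direction is inferred from only a few compounds that gave an IC50; most scored high, so higher reads as stronger inhibition. Most strong results did not repeat in a second test. Size under these conditions: about 67,000 compounds, about 40 of them at 50% or above in at least one test.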
PfKRS1: 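Lysine-tRNA ligase, Plasmodium falciparum 3D7 (UniProt Q8IDJ8). Enzyme assay of the cytosolic lysyl-tRNA synthetase in 384-well plates, read by luminescence. Compounds at 30 µM. Higher reads as stronger inhibition, judged from the few compounds that gave an IC50. Size under these conditions: about 69,000 compounds, about 49 of them at 50% or above in at least one test.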
TcHisRS: 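Enzyme assay of histidyl-tRNA synthetase; the read-out is not stated. Target: Histidine-tRNA ligase, Trypanosoma cruzi CL Brener (UniProt Q4DA54). Tested at 30 µM. Higher reads as stronger inhibition (inferred: compounds with an IC50 in retests scored well above the rest). Size under these conditions: about 69,000 compounds, about 31 of them at 50% or above in at least one test.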

Each number is a percent effect as filed.
How 0% and 100% were set is not recorded. Most values in the screen are low, and negative values occur.
Compounds were drawn at random from those tested, without regard to their results.
Two or more numbers in one place are separate tests of the same structure; such repeats can differ widely.

{"compound": "O=C(NC1CCCNC1=O)c1ccc2nc(-c3ccc(F)cc3)cn2c1", "stereo": "centres unmarked", "Pks13 thioesterase": 9.168, "CoaBC": -0.609, "PfKRS1": -3.483, "TcHisRS": 0.5952}
{"compound": "NC(=O)CN1CCCN(C(=O)Cc2ccc3c(c2)OCO3)CC1", "Pks13 thioesterase": -7.06, "CoaBC": 1.434, "PfKRS1": 5.682, "TcHisRS": 4.151}
{"compound": "Cn1nc(C(=O)N2CCCCC2c2nc3cc(F)ccc3[nH]2)ccc1=O", "stereo": "centres unmarked", "Pks13 thioesterase": -20.82, "CoaBC": 15.19, "PfKRS1": -2.545, "TcHisRS": 0}
{"compound": "Cc1cc(C2CCCN(CCNS(=O)(=O)c3ccccc3)C2)n[nH]1", "stereo": "centres unmarked", "Pks13 thioesterase": -26.68, "CoaBC": "13.92 & 20.39", "PfKRS1": -0.6741, "TcHisRS": 4.07}
{"compound": "Cc1nn(-c2cc(Cl)cc(Cl)c2)c(C)c1CCC(=O)O", "Pks13 thioesterase": 23.42, "CoaBC": 3.641, "PfKRS1": 4.908, "TcHisRS": 5.682}
{"compound": "OCCOCc1n[nH]c2c1CN(Cc1cccs1)C2", "Pks13 thioesterase": -40.62, "CoaBC": -2.326, "PfKRS1": 3.883, "TcHisRS": 2.151}
{"compound": "CC(=O)N1CCc2ncc(CNC(=O)C3CCC3)n2CC1", "Pks13 thioesterase": -28.88, "CoaBC": -4.938, "PfKRS1": -0.4167, "TcHisRS": 6.542}
{"compound": "COCCC(=O)N1CC[C@@H](N(C)C)[C@@H]1Cc1ccccc1", "Pks13 thioesterase": -29.55, "CoaBC": -4.145, "PfKRS1": -3.205, "TcHisRS": 1.639}
{"compound": "CC(NC(=O)COC1CCCC1)c1nc(-c2ccccc2)c[nH]1", "stereo": "centres unmarked", "Pks13 thioesterase": -38.16, "CoaBC": -0.9346, "PfKRS1": 2.754, "TcHisRS": 5.752}
{"compound": "Cc1cc(NCC2CCN(c3ccccc3)C2)n2ncnc2n1", "stereo": "centres unmarked", "Pks13 thioesterase": -5.995, "CoaBC": 10.12, "PfKRS1": 3.36, "TcHisRS": -12.7}
{"compound": "CCN(Cc1cccc(NC(=O)COCCOC)c1)C(C)=O", "Pks13 thioesterase": 3.087, "CoaBC": -1.449, "PfKRS1": -3.157, "TcHisRS": 3.226}
{"compound": "COc1ccccc1OCC(=O)NS(=O)(=O)c1ccc(Cl)s1", "CoaBC": -2.949, "PfKRS1": 2.626, "TcHisRS": 1.425}
{"compound": "CCn1ccnc1CN1CCC(N(Cc2ncc(C)o2)C(C)=O)C1", "stereo": "centres unmarked", "Pks13 thioesterase": 2.05, "CoaBC": 0, "PfKRS1": 4.951, "TcHisRS": -38.55}
{"compound": "CC(C)Nc1ncccc1C(=O)NCc1cnc(N(C)C)n1C", "Pks13 thioesterase": -14.46, "CoaBC": 14.43, "PfKRS1": -1.251, "TcHisRS": 4.372}
{"compound": "COc1nc2c(cc1C(=O)NC(C)Cc1cc(C)n[nH]1)CCC2", "stereo": "centres unmarked", "Pks13 thioesterase": -3.092, "CoaBC": -9.742, "PfKRS1": 2.836, "TcHisRS": 2.646}
{"compound": "Cc1cc(C(=O)Nc2nc3c(s2)CN(S(=O)(=O)C2CC2)CC3)c(C)o1", "Pks13 thioesterase": 3.262, "CoaBC": 1.272, "PfKRS1": 1.45, "TcHisRS": 7.229}
{"compound": "CCCNCc1ncc(C)c(OC)c1C", "Pks13 thioesterase": -0.3996, "CoaBC": -3.002, "PfKRS1": 2.799, "TcHisRS": 2.609}
{"compound": "CC1CN(CC(=O)NC(=O)NCc2ccccc2)CCO1", "stereo": "centres unmarked", "Pks13 thioesterase": -17.72, "CoaBC": 5.803, "PfKRS1": 5.235, "TcHisRS": 0}
{"compound": "CC(C)NC(=O)C1CN(Cc2ccc(F)cc2)CC12CCOCC2", "stereo": "centres unmarked", "Pks13 thioesterase": 0.7898, "CoaBC": 5.764, "PfKRS1": 1.32, "TcHisRS": 4.878}
{"compound": "Cc1ccc(CN2CC[C@H]3OCC[C@@H](C(=O)NCC4CC4)[C@@H]3C2)s1", "Pks13 thioesterase": 29.82, "CoaBC": -0.6515, "PfKRS1": 1.348, "TcHisRS": 5.882}
{"compound": "CCc1noc(CN2CCN(C(=O)COC)CC2)n1", "Pks13 thioesterase": -18.77, "CoaBC": -1.837, "PfKRS1": 0.1973, "TcHisRS": -0.5714}
{"compound": "Cc1ccc(C(CNCc2cnn(C(C)C)c2)N2CCOCC2)s1", "stereo": "centres unmarked", "Pks13 thioesterase": -13.46, "CoaBC": -2.692, "PfKRS1": 3.288, "TcHisRS": 0.5348}
{"compound": "COc1ncccc1NC(=O)N1CCC(CNC(C)=O)CC1", "Pks13 thioesterase": -1.234, "CoaBC": 6.25, "PfKRS1": -3.07, "TcHisRS": 2.075}
{"compound": "CN(C)C(=O)CN1CCN(C(=O)c2cnn(-c3ccccc3Cl)c2)CC1", "Pks13 thioesterase": -0.5467, "CoaBC": 12.55, "PfKRS1": -0.2617, "TcHisRS": 2.579}
{"compound": "CC(C)CN1C(=O)C2(CCCC2)NC12CCSCC2", "Pks13 thioesterase": 2.174, "CoaBC": -0.4831, "PfKRS1": -0.8411, "TcHisRS": 8.387}
{"compound": "Cc1cc2n(n1)[C@@H](C(F)(F)F)C[C@@H](C1CCN(C(=O)C(C)C)CC1)N2", "Pks13 thioesterase": 1.957, "CoaBC": -3.65, "PfKRS1": -0.3763, "TcHisRS": 4.478}
{"compound": "Nc1ncc(CN2CCC(O)(c3ccccc3F)CC2)cn1", "Pks13 thioesterase": 0.9751, "CoaBC": -10.51, "PfKRS1": 0.3699, "TcHisRS": 3.03}
{"compound": "CCN1CC2(CC1=O)CN(Cc1ccco1)CCN(C(=O)C(C)C)C2", "stereo": "centres unmarked", "Pks13 thioesterase": 1.87, "CoaBC": 0, "PfKRS1": 3.548, "TcHisRS": -2.439}
{"compound": "CC(C)(C)n1ncc2c(=O)[nH]c(N3CCN(CCO)CC3)nc21", "Pks13 thioesterase": -22.95, "CoaBC": 8.636, "PfKRS1": 6.582, "TcHisRS": 8.108}
{"compound": "Cc1ccc(-c2cc(CNC(=O)N3CCC(O)CC3)on2)cc1", "Pks13 thioesterase": -21.5, "CoaBC": 0.7653, "PfKRS1": -0.3032, "TcHisRS": 11.11}

Some entries from above, unchanged:

* CN(C)C(=O)CN1CCN(C(=O)c2cnn(-c3ccccc3Cl)c2)CC1 : Pks13 thioesterase: -0.5467%; CoaBC: 12.55%; PfKRS1: -0.2617%; TcHisRS: 2.579%
* Cc1nn(-c2cc(Cl)cc(Cl)c2)c(C)c1CCC(=O)O : Pks13 thioesterase: 23.42%; CoaBC: 3.641%; PfKRS1: 4.908%; TcHisRS: 5.682%
* Cc1cc(NCC2CCN(c3ccccc3)C2)n2ncnc2n1 (centres unmarked) : Pks13 thioesterase: -5.995%; CoaBC: 10.12%; PfKRS1: 3.36%; TcHisRS: -12.7%